Assay results as given in the supplement of paper PMC5407854, “Inhibitor of ppGalNAc-T3-mediated O-glycosylation blocks cancer cell invasiveness and lowers FGF23 levels” (eLife, 2017).
The list shows a part of the results. Most entries show no effect beyond the scatter of the controls.

System: ppGalNAc-T3 sensor
Assay: T3 sensor activation Q score (MG/GFP ratio z-score vs DMSO controls) (SD units); higher = more sensor activation (inhibition of ppGalNAc-T3 glycosylation)
Conditions: HEK293 sensor cells; 10 µM; 6 h
Description: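 Cells were treated with compound at 10 uM for 6 h, then MG/GFP ratio was read by flow cytometry (10,000 cells per well, duplicate wells). Q = (R - R_neg)/SD_neg relative to DMSO vehicle controls; the signal rises when the glycosyltransferase is inhibited.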

Row | SMILES | T3 sensor activation Q score
1 | CC(C)(C)S(=O)(=O)c1ccsc1S(C)(=O)=O | 0.85
2 | Fc1ccc(CN2CCN(c3ncccn3)CC2)c(F)c1 | 0.48
3 | O=C(O)C1CCN(c2nc(-c3ccc(Cl)cc3)cs2)CC1 | -0.3
4 | COc1cc(OC)c(OC)cc1CN1CCC(N2CCCCC2)CC1 | 0.865
5 | Cc1ccc(Oc2ccc(-c3nc(N)nc(N)n3)cc2)cc1 | 0.63
6 | CN(C)CC(O)Cn1c2ccc(Cl)cc2c2cc(Cl)ccc21 (stereo not given) | -0.075
7 | O=C(Nc1cccc(Cl)c1)N1CCCCCC1 | 0.165
8 | O=C(O)c1ccccc1-c1ncc(-c2ccccc2)o1 | -0.34
9 | CCCC(C)(C)NC(=O)c1ccccc1 | 0.485
10 | CCOc1ccc(CN2CCN(c3ccccc3OCC)CC2)cc1 | 0.09
11 | O=C1CCCc2c1nc(-c1ccccc1)n2O | -0.685
12 | COc1cc(CN2CCCN(C)CC2)cc([N+](=O)[O-])c1O | -1.1
13 | NC(=O)C1CCN(C2CC(=O)N(c3cccc(Cl)c3)C2=O)CC1 (stereo not given) | 0.08
14 | COc1cc2nc(C)[nH]c2cc1OC | 0.61
15 | COc1ccc(NC2=CC(=O)CCC2)c(OC)c1 | -0.765
16 | Cc1cccc(NC(=O)CCC(=O)O)c1 | -0.065
17 | COc1ccc(S(=O)(=O)Nc2ccc(N3CCOCC3)cc2)cc1 | 0.45
18 | Cc1cc([N+](=O)[O-])ccc1NC(=O)c1ccc(C(C)(C)C)cc1 | 0.94
19 | COc1ccccc1N1CCN(Cc2ccc(C(=O)O)cc2)CC1 | -0.13
20 | CC(O)Cn1c2ccccc2c2cc(Cl)ccc21 (stereo not given) | -0.05

Reprinted at random: three compounds from above.
Row | SMILES | T3 sensor activation Q score
10 | CCOc1ccc(CN2CCN(c3ccccc3OCC)CC2)cc1 | 0.09
13 | NC(=O)C1CCN(C2CC(=O)N(c3cccc(Cl)c3)C2=O)CC1 (stereo not given) | 0.08
20 | CC(O)Cn1c2ccccc2c2cc(Cl)ccc21 (stereo not given) | -0.05

Going on with the list:

Row | SMILES | T3 sensor activation Q score
21 | Cc1ccc2oc(-c3cccc(NC(=O)c4ccccc4I)c3)nc2c1 | -0.045
22 | O=c1[nH]c(NCCCO)nc2c1C1(CCCC1)Cc1ccccc1-2 | -0.565
23 | CC(NC(=O)c1ccccc1)C(=O)O (stereo not given) | -0.265
24 | COc1ccc2c(Cl)c(C(=O)N3CCOCC3)sc2c1 | 0.53
25 | COc1ccc(NC2=C(N(C)C)C(=O)c3ccccc3C2=O)cc1 | -0.26
26 | Cc1ccccc1OCC(=O)Nc1cccc(Cl)c1C | 0.04
27 | CN(C)CCN(C)Cc1ccc(Cl)cc1Cl | 1.16
28 | CC(=O)Nc1ccc(NC(=O)c2ccccc2Br)cc1 | -0.105
29 | O=C(c1ccc(F)cc1)N1CCN(C(=O)c2ccc(F)cc2)CC1 | -0.115
30 | CC(C)(C)c1ccc(C(=O)Nc2ccccc2Cl)cc1 | 0.415
31 | CCC1(CC)C(=O)NC(=O)N=C1N | 2.45
32 | O=C(O)CN1C(=O)c2ccc(Br)cc2C1=O | 0.11
33 | CC(C)(C)c1cc(O)c(O)c(Br)c1 | -1.16
34 | NC(=O)NC(c1ccccc1)c1ccc(Br)cc1 (stereo not given) | 0.905
35 | COc1ccc(S(=O)(=O)/C=C/c2ccccc2)cc1 | 0.195
36 | O=CN1N=C(c2ccccc2)CC1c1ccccc1 (stereo not given) | 0.57
37 | CN(C)CCNc1ccc([N+](=O)[O-])cc1Cl | 0.65
38 | O=c1c(CN2CCN(c3ccccc3)CC2)coc2ccc(Cl)cc12 | 0.715
39 | CCCOc1ccc(C(=O)N2CCCCC2)cc1OC | 0.26
40 | CC1CCCN(CC(O)COCc2ccc(Cl)cc2)C1 (stereo not given) | -0.425
